Values from PubChem BioAssay AID1671195 (Yale University, 2021)

Screen: 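Regulators of LDL receptor activity judged by labelled LDL uptake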 (primary screen)
Cell system: human Huh7 hepatoma cells
Reagents: siRNA pool against human genes, 18 nM
Duration: about 2 to 2.5 days of knockdown, then 8 h LDL uptake
Conditions: DiI-labelled LDL at 30 µg/ml for 8 h, in lipoprotein-deficient serum medium
Detection: 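Fluorescent LDL signal imaged in cells, scaled to the plate median, robust z-score for each replicate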
Direction: robust z-score: higher = more LDL uptake after knockdown
Rule for the call: 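a gene counts as active if at least two replicate z-scores exceed ±2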
Shown is a random part of about 22,000 reagents tested. About 1,510 of all reagents (6.9%) count as active. 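Active includes knockdowns raising or lowering LDL uptake; positive z-scores mean more uptake, negative mean less.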 No sequences are given here.

gene	robust z-score, replicate 1	robust z-score, replicate 2	robust z-score, replicate 3	Call
UBTF (upstream binding transcription factor)	0.498	1.18	-0.177	inactive
PHKG2 (phosphorylase kinase catalytic subunit gamma 2)	-0.21	0.567	0.895	inactive
DELE1 (DAP3 binding cell death enhancer 1)	-1.58	-1.97	-1.87	inactive
LOC400763 (retired record)	1.24	1.6	1.28	inactive
BMP8B (bone morphogenetic protein 8b)	-0.991	-0.932	-1.69	inactive
ZSWIM1 (zinc finger SWIM-type containing 1)	-1.13	-1.11	-1.24	inactive
OR2B6 (olfactory receptor family 2 subfamily B member 6)	2.46	0.649	-0.152	inactive
LOC440864 (retired record)	-0.487	0.821	0.616	inactive
BOC (BOC cell adhesion associated, oncogene regulated)	-0.718	-0.795	-0.94	inactive
WDFY4 (WDFY family member 4)	-1.33	-0.18	-1.48	inactive
DYNC1LI2 (dynein cytoplasmic 1 light intermediate chain 2)	1.08	1.7	1.38	inactive
TSPAN8 (tetraspanin 8)	1.32	1.44	2.75	inactive
C1S (complement C1s)	-0.512	-1.76	0.0274	inactive
ZNF74 (zinc finger protein 74)	-1.31	-1.13	-0.0697	inactive
ADAM30 (ADAM metallopeptidase domain 30)	-0.402	-1.13	-0.261	inactive
PDZRN3 (PDZ domain containing ring finger 3)	1.68	0.175	0.878	inactive
ACYP2 (acylphosphatase 2)	-0.611	-0.884	-0.575	inactive
NEUROG3 (neurogenin 3)	0.404	0.516	3.1	inactive
LRRK2 (leucine rich repeat kinase 2)	-0.739	0.51	-0.0019	inactive
XPNPEP1 (X-prolyl aminopeptidase 1)	-0.618	0.134	-0.617	inactive
LOC400796 (retired record)	3.59	3.38	3.14	active
OSTN (osteocrin)	-0.0435	-0.646	-0.098	inactive
UBAP1L (ubiquitin associated protein 1 like)	0.578	0.872	0.359	inactive
SYNPO2 (synaptopodin 2)	-0.752	-0.509	0.638	inactive
RANBP10 (RAN binding protein 10)	0.181	0.685	0.991	inactive
KLK7 (kallikrein related peptidase 7)	0.686	1.38	1.13	inactive
NADK (NAD kinase)	0.75	-0.279	-0.149	inactive
RILP (Rab interacting lysosomal protein)	-0.898	0.185	-1.01	inactive
EPHA2 (EPH receptor A2)	0.15	0.353	0.0503	inactive
SORCS2 (sortilin related VPS10 domain containing receptor 2)	-0.624	-0.0753	-0.658	inactive
RNASE7 (ribonuclease A family member 7)	-0.351	-0.729	-0.512	inactive
ATP8B1 (ATPase phospholipid transporting 8B1)	0.465	0.556	0.368	inactive
ABCA13 (ATP binding cassette subfamily A member 13)	-0.81	-0.294	-1.08	inactive
STPG4 (sperm-tail PG-rich repeat containing 4)	-0.381	-0.47	-0.506	inactive
MLH1 (mutL homolog 1)	-1.22	-1.52	-1.25	inactive
MR1 (major histocompatibility complex, class I-related)	-0.0293	-0.615	0.1	inactive
NAXD (NAD(P)HX dehydratase)	-0.106	-0.000426	-1.42	inactive
NCOA4 (nuclear receptor coactivator 4)	0.476	0.196	0.565	inactive
PPARGC1B (PPARG coactivator 1 beta)	0.154	-0.118	0.237	inactive
SPATA4 (spermatogenesis associated 4)	-0.984	-1.33	-1.31	inactive
LOC441115 (retired record)	0.147	0.0635	0.556	inactive
ITSN1 (intersectin 1)	-1.3	-1.24	-1.3	inactive
SYT2 (synaptotagmin 2)	1.62	1.44	2.21	inactive
LOC442276 (retired record)	0.45	-0.155	0.883	inactive
FBXO9 (F-box protein 9)	1.39	1.85	1.84	inactive
ATP5MF (ATP synthase membrane subunit f)	-1.3	-0.907	-0.714	inactive
TAFA2 (TAFA chemokine like family member 2)	0.734	0.559	0.684	inactive
TMEM144 (transmembrane protein 144)	-1.11	1.61	0.607	inactive
HDX (highly divergent homeobox)	-0.283	-0.395	1.23	inactive
MAP2K5 (mitogen-activated protein kinase kinase 5)	2.08	2.37	2.24	active
NRBF2 (nuclear receptor binding factor 2)	-2.22	-0.634	0.212	inactive
IL12RB1 (interleukin 12 receptor subunit beta 1)	-0.574	-1.08	-0.999	inactive
FASTKD2 (FASTK mitochondrial RNA regulator 2)	0.874	-0.486	1.93	inactive
FBXO32 (F-box protein 32)	-0.383	-0.953	-0.984	inactive
LOC339025 (retired record)	1.43	1.18	1.25	inactive
ZNF184 (zinc finger protein 184)	1.02	-1.18	-0.308	inactive
DMAC2L (distal membrane arm assembly component 2 like)	-1.93	-1.02	-0.2	inactive
TLR6 (toll like receptor 6)	0.158	0.655	-1.09	inactive
NUDT11 (nudix hydrolase 11)	-0.145	0.358	1.34	inactive
AKAP14 (A-kinase anchoring protein 14)	0.73	4.69	1.46	inactive
S100A10 (S100 calcium binding protein A10)	-1.66	-1.52	-1.86	inactive
RNF2 (ring finger protein 2)	-0.633	-0.464	-0.367	inactive
ODF2 (outer dense fiber of sperm tails 2)	0.113	0.996	0.0154	inactive
PGBD4 (piggyBac transposable element derived 4)	0.0632	0.827	0.285	inactive
SCGB2A1 (secretoglobin family 2A member 1)	1.68	0.873	1.15	inactive
RNF168 (ring finger protein 168)	-0.608	-0.0125	-0.2	inactive
PALLD (palladin, cytoskeletal associated protein)	0.778	1.01	-0.179	inactive
MROCKI	0.734	0.591	1.1	inactive
